Data taken from paper doi:10.1101/2021.01.14.426638.
No constants are given. Whether binding was seen depends on the method and setting. Binding seen in cells or lysates may run through a third protein. Here binding means that the protein was enriched with, or labelled near, the bait; the list need not be complete. Where a sequence is shown, tags or fusion partners need not be part of it. Values belong to the molecule of their own block, whether it stands above or below them.

The chains behind the UniProt entries cited, without tags or fusion partners.
UniProt Q99NH2: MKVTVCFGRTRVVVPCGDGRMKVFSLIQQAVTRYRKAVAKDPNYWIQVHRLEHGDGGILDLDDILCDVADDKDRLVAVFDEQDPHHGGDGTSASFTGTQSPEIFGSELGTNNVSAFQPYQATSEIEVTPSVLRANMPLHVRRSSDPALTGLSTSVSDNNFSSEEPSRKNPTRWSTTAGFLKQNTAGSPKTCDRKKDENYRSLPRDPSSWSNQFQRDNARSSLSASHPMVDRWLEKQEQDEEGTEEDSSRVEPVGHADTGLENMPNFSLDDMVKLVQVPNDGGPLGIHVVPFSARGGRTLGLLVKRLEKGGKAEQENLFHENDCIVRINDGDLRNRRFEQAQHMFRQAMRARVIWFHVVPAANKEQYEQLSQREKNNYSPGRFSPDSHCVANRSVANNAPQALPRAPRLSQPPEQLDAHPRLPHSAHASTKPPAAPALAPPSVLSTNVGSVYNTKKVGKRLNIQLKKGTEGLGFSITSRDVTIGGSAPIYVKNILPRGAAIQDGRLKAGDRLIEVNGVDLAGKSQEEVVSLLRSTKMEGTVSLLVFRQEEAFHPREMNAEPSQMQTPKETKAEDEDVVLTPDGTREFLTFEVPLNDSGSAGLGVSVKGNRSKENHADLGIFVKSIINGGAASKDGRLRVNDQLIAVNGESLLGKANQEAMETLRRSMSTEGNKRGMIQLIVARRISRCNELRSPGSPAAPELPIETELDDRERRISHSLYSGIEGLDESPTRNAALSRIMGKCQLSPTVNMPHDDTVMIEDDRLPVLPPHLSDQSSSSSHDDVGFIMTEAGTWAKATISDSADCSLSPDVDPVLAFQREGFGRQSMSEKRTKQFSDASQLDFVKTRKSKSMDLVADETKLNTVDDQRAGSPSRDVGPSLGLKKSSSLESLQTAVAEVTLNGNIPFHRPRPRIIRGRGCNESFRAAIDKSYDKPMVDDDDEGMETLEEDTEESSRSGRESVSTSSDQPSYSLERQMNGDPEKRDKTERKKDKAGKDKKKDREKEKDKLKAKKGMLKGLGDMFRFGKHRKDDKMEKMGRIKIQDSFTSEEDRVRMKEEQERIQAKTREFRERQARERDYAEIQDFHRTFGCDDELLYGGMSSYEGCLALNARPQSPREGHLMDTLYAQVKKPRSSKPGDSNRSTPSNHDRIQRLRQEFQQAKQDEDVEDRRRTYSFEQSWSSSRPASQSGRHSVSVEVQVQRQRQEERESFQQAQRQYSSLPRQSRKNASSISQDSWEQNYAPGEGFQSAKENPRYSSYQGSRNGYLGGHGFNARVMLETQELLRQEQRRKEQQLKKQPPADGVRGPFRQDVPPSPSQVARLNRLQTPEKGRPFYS
UniProt Q61879: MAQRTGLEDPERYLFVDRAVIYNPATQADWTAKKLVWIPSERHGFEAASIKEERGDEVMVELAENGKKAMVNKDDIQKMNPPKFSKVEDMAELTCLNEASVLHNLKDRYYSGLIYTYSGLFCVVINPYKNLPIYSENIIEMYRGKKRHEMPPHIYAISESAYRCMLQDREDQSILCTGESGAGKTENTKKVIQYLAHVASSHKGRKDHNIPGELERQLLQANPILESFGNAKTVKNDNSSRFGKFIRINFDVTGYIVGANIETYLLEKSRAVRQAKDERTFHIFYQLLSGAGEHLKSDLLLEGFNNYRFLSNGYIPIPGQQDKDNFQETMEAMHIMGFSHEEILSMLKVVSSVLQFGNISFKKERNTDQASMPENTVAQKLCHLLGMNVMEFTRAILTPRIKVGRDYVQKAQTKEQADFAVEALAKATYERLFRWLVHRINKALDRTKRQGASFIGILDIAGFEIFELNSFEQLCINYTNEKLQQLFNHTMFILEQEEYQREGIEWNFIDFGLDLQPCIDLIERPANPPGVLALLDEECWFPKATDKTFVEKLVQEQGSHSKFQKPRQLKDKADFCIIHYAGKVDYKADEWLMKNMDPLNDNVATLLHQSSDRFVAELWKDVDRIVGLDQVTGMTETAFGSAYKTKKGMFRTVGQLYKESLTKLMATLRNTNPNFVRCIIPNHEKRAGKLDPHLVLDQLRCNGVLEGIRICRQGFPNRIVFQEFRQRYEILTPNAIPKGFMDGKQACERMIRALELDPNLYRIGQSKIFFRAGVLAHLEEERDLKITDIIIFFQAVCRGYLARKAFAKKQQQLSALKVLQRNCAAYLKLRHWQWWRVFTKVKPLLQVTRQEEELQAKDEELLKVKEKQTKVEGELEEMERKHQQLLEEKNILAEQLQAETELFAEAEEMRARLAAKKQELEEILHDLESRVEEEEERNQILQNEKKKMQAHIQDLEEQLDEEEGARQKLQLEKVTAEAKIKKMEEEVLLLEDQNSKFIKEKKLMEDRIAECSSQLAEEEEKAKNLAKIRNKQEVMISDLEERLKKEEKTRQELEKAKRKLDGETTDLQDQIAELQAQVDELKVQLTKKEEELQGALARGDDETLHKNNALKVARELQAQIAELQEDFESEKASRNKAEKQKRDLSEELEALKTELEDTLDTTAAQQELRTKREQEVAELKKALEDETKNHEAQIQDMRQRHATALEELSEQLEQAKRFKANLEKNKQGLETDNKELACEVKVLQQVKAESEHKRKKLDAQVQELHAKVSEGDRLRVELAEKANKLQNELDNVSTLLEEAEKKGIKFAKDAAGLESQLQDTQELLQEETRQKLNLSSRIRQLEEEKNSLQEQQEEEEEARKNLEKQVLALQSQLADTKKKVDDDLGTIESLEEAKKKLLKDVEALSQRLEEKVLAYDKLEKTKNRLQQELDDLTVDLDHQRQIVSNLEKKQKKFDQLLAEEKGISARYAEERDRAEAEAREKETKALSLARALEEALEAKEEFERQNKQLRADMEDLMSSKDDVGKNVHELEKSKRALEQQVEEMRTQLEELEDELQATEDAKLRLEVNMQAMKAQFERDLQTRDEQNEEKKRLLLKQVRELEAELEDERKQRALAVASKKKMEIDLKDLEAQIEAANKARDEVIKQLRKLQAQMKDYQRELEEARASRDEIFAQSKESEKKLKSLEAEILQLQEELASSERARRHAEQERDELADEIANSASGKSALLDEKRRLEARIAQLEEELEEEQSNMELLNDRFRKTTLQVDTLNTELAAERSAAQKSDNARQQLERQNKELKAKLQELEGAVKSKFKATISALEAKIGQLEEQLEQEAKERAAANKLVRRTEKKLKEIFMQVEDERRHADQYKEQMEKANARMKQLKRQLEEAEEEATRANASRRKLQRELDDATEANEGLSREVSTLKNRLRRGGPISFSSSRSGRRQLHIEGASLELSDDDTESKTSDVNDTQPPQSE

Molecular target: T1, mouse Amot p130 fused to BirA* (BirA R118G), BioID construct (mouse) (UniProt Q8VHG2)
T1 sequence: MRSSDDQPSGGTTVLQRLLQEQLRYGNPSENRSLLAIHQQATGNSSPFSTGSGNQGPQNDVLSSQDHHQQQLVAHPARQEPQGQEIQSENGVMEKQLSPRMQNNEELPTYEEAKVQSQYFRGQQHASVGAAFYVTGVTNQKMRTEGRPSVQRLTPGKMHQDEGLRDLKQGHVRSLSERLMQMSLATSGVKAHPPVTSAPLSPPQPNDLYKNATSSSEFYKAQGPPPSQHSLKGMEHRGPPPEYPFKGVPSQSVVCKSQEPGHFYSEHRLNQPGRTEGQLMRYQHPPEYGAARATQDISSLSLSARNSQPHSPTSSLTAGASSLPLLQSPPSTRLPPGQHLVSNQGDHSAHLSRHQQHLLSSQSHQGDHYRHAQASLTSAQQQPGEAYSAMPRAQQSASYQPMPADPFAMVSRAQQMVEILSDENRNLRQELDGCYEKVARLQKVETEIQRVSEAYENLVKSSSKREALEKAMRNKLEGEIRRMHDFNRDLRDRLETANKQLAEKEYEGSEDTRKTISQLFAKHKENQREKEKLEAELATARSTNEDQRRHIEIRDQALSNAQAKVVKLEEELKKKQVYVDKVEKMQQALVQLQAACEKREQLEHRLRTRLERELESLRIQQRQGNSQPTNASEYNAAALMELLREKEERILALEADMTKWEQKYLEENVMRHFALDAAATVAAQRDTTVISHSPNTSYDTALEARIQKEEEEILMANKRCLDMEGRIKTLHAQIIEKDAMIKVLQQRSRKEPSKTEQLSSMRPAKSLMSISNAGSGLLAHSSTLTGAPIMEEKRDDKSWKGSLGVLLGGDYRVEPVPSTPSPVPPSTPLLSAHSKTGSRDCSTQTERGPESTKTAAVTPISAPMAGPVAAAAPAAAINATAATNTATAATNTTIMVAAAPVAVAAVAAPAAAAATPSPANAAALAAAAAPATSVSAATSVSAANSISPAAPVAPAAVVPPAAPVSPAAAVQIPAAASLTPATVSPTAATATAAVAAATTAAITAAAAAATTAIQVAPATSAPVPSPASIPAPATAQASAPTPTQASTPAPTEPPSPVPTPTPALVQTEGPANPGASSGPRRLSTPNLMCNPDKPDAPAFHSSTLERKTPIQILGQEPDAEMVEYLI
Test: proximity labelling

Molecule: Pard3, endogenous in MS1 cells (from UniProt Q99NH2 1-1333)
binding: binds

B2: catenin delta-1, endogenous in MS1 cells (protein, UniProt P30999 1-938)
chain: MDDSEVESTASILASVKEQEAQFEKLTRALEEERRHVSAQLERVRVSPQDANSLMANGTLTRRHQNGRFVGDADLERQKFSDLKLNGPQDHNHLLYSTIPRMQEPGQIVETYTEEDPEGAMSVVSVETTDDGTTRRTETTVKKVVKTMTTRTVQPVPMGPDGLPVDASAVSNNYIQTLGRDFRKNGNGGPGPYVGQAGTATLPRNFHYPPDGYGRHYEDGYPGGSDNYGSLSRVTRIEERYRPSMEGYRAPSRQDVYGPQPQVRVGGSSVDLHRFHPEPYGLEDDQRSMGYDDLDYGMMSDYGTARRTGTPSDPRRRLRSYEDMIGEEVPPDQYYWAPLAQHERGSLASLDSLRKGMPPPSNWRQPELPEVIAMLGFRLDAVKSNAAAYLQHLCYRNDKVKTDVRKLKGIPILVGLLDHPKKEVHLGACGALKNISFGRDQDNKIAIKNCDGVPALVRLLRKARDMDLTEVITGTLWNLSSHDSIKMEIVDHALHALTDEVIIPHSGWEREPNEDCKPRHIEWESVLTNTAGCLRNVSSERSEARRKLRECDGLVDALIFIVQAEIGQKDSDSKLVENCVCLLRNLSYQVHREIPQAERYQEALPTVANSTGPHAASCFGAKKGKDEWFSRGKKPTEDPANDTVDFPKRTSPARGYELLFQPEVVRIYISLLKESKTPAILEASAGAIQNLCAGRWTYGRYIRSALRQEKALSAIAELLTSEHERVVKAASGALRNLAVDARNKELIGKHAIPNLVKNLPGGQQNSSWNFSEDTVVSILNTINEVIAENLEAAKKLRETQGIEKLVLINKSGNRSEKEVRAAALVLQTIWGYKELRKPLEKEGWKKSDFQVNLNNASRSQSSHSYDDSTLPLIDRNQKSDKKPDREEIPMSNMGSNTKSLDNNYSTLNERGDHNRTLDRSGDLGDMEPLKGAPLMQKI
binding: binds

More lines, now with the values ahead:

binding: binds
Molecule: myosin 10, endogenous in MS1 cells (from UniProt Q61879 1-1976)

binding: binds
B1: kank2, endogenous in MS1 cells (protein, UniProt Q8BX02 1-843)
chain: MAQVLHVPAPFPGTPGQASPAAFPSKEPDPPYSVETPYGYRLDLDFLKYVDDIEKGHTLRRVAVQRRPRLGSLPRGPGSWWTSTESLCSDASGDSRHSAYSYCGRGFYPQYGALETRIGSNPRVERTLLDARRRLEDQAAAPSSGGLGSLTPSAAGSTSSLAGVGLLPPTPRSSGLSTPVAPSAGHLAHVREQMAGALRKLRQLEEQVKLIPVLQVKLSVLQEEKRQLTVQLKSQKFLGHPSGTRSRSELCLDLPEAPDDPAALETRSVGTWVRERDLGIPDGEAALVAKVAVLETQLKKALQELRAAQTQQVDLQPQAWPPPDTQVRVDTVRVVEGPREVEVAASTAAGALAQRAQSLEPYGTGLKALTTSGGPENTLVFRSHEVVETMCPLPTATTGNVHTAKKISITERSCTGAPRMTEPSSVNPRPAAASVVQPENPVPAAQDTTDKKPTRPAAASQDSQAADGAGRASLATKRKEDPADPEVNQRNLQFVGVNGGYESPSEDSSTAENSEHESTENEGPEPPARVLSPAECPQLRPPGAAVATTSLEGPQLSQESQRVPAPEVASGPDPEEEIRMDLSPDLISACLALEKYLENPNALTERELKVAYTTVLQEWLRLACRSDAHPELVRRHLVTFRAMSARLLDYVVNIADSNGNTALHYSVSHANFPVVRQLLDSGVCHVDKLNRAGYSPIMLTALATLKTQDDIETILQLFRLGNVNAKASQAGQTALMLAVSHGRVDVVRALLACEADVNIQDEDGSTALMCACEHGHKEITGLLLAVPSCDISLTDRDGSTALMVALDAGQSEIASMLYSRMNIKCSFAPMSDYESPASSSAEE

binding: binds
B3: zyxin, endogenous in MS1 cells (protein, UniProt Q62523 1-564)
chain: MAAPRPPPAISVSVSAPAFYAPQKKFAPVVAPKPKVNPFRPGDSEPPVAAGAQRAQMGRVGEIPPPPPEDFPLPPPPLIGEGDDSEGALGGAFPPPPPPMIEEPFPPAPLEEDIFPSPPPPLEEEGGPEAPTQLPPQPREKVCSIDLEIDSLSSLLDDMTKNDPFKARVSSGYVPPPVATPFVPKPSTKPAPGGTAPLPPWKTPSSSQPPPQPQAKPQVQLHVQPQAKPHVQPQPVSSANTQPRGPLSQAPTPAPKFAPVAPKFTPVVSKFSPGAPSGPGPQPNQKMVPPDAPSSVSTGSPQPPSFTYAQQKEKPLVQEKQHPQPPPAQNQNQVRSPGGPGPLTLKEVEELEQLTQQLMQDMEHPQRQSVAVNESCGKCNQPLARAQPAVRALGQLFHITCFTCHQCQQQLQGQQFYSLEGAPYCEGCYTDTLEKCNTCGQPITDRMLRATGKAYHPQCFTCVVCACPLEGTSFIVDQANQPHCVPDYHKQYAPRCSVCSEPIMPEPGRDETVRVVALDKNFHMKCYKCEDCGKPLSIEADDNGCFPLDGHVLCRKCHSARAQT
